No constants are given. Whether binding was seen depends on the method and setting. In cells and extracts the contact can be indirect. Binding can be weak; no strength is given. Where a sequence is shown, tags or fusion partners need not be part of it.

The test addresses NKS1 (-cYFP) (Arabidopsis thaliana). Kind of test: split reporter.

B1: QUA1 (GAUT8) (-nYFP) (protein, UniProt Q9LSG3 1-559)
chain: MANHHRLLRGGGSPAIIGGRITLTAFASTIALFLFTLSFFFASDSNDSPDLLLPGVEYSNGVGSRRSMLDIKSDPLKPRLIQIRKQADDHRSLALAYASYARKLKLENSKLVRIFADLSRNYTDLINKPTYRALYDSDGASIEESVLRQFEKEVKERIKMTRQVIAEAKESFDNQLKIQKLKDTIFAVNEQLTNAKKQGAFSSLIAAKSIPKGLHCLAMRLMEERIAHPEKYTDEGKDRPRELEDPNLYHYAIFSDNVIAASVVVNSAVKNAKEPWKHVFHVVTDKMNLGAMQVMFKLKEYKGAHVEVKAVEDYTFLNSSYVPVLKQLESANLQKFYFENKLENATKDTTNMKFRNPKYLSILNHLRFYLPEMYPKLHRILFLDDDVVVQKDLTGLWEIDMDGKVNGAVETCFGSFHRYAQYMNFSHPLIKEKFNPKACAWAYGMNFFDLDAWRREKCTEEYHYWQNLNENRALWKLGTLPPGLITFYSTTKPLDKSWHVLGLGYNPSISMDEIRNAAVVHFNGNMKPWLDIAMNQFRPLWTKHVDYDLEFVQACNFGL
Turning to B1, the binding result is listed as “binds”.

B2: Got1P homolog (-nYFP) (protein, UniProt Q6NMM1 1-140)
chain: MASLEMNDLKKIGLGLTGFGVFFTFLGVIFVFDKGLIAMGNILFLAGVTLTIGINPAIQFFTKRQNFKGTISFGLGFLLVVFGWPIFGLLLESYGFLVLFSGFWPTLAVFLQRIPLLGWLLQQPYIRSLLDRYRGRRVPV
Turning to B2, the binding entry is “no binding”.

(Values after doi:10.1101/2021.05.03.442108.)
